Measured data: PubChem BioAssay AID1259254 (NCATS, 2017)

Assay: 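Finding genes that stop cells copying their DNA twice in one cycle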 (primary screen)
Cells: human HCT116 colorectal cancer cells
Reagents: single siRNA against human genes
Timing: 3 days
Measured: 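Imaged Hoechst DNA stain sorts each cell into a cycle phase by DNA amount; per plate, G2 fraction set to 0% for non-targeting and 100% for GMNN siRNA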
Scale: G2 robust z-score and G2 cells, % of GMNN control: higher = more G2 cells, more excess DNA replication; raw share of cells in G2: higher = larger share of cells with G2 DNA content
Rule for the call: 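An siRNA counts as active if its G2 robust z-score lies at least 5 MADs above the screen median; here such calls match roughly 38% of GMNN control or more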
Shown is an unselected part of about 59,000 deposited reagents. In the full data, about 1,550 (2.6%) got an active call. 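G2 share is only a proxy for re-replication; each gene was hit by three separate siRNAs, and active genes were retested.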 The raw values are shown without normalisation. Unmarked entries are inactive. The numbers tell different reagents against one gene apart. Not stated in the record: the amount of reagent.

target gene	siRNA no.	G2 robust z-score	G2 cells, % of GMNN control	raw share of cells in G2 (%)
BTK	1	-0.497	-0.533	5.43
BTK	2	-0.794	-2.62	4.53
BTK	3	-0.228	1.37	4.51
C16orf96	1	6.7 (active)	50.1	21.2
C16orf96	2	-0.607	-1.31	2.69
C16orf96	3	0.444	6.09	6.64
METTL27	1	4.56	35.1	16.2
METTL27	2	1.1	10.7	6.56
METTL27	3	0.346	5.4	4.47
DNM1P31	1	-0.0809	2.4	4.14
DNM1P31	2	-0.617	-1.37	2.75
DNM1P31	3	0.377	5.62	5.78
AJUBA	1	-0.11	2.2	5.31
AJUBA	2	-0.112	2.18	6.68
AJUBA	3	0.163	4.12	6.73
NGDN	1	0.082	3.54	5.75
NGDN	2	2.49	20.5	12.8
NGDN	3	3.78	29.5	13.6
TMEM91	1	0.0887	3.59	5.01
TMEM91	2	-0.91	-3.43	2.11
TMEM91	3	0.197	4.35	4.6
ARL6IP1P2	1	0.564	6.94	6.39
ARL6IP1P2	2	-0.728	-2.15	2.43
ARL6IP1P2	3	-0.328	0.659	3.25
CCDC197	1	-0.78	-2.52	2.66
CCDC197	2	0.137	3.93	4.48
CCDC197	3	-1.03	-4.28	1.83
KLHDC8A	1	-0.799	-2.65	3.5
KLHDC8A	2	0.2	4.38	5.95
KLHDC8A	3	-0.176	1.73	3.69

Not a retest: an excerpt of the list.
target gene	siRNA no.	G2 robust z-score	G2 cells, % of GMNN control	raw share of cells in G2 (%)
METTL27	3	0.346	5.4	4.47
DNM1P31	1	-0.0809	2.4	4.14
DNM1P31	2	-0.617	-1.37	2.75
DNM1P31	3	0.377	5.62	5.78
AJUBA	1	-0.11	2.2	5.31
